# In PubChem BioAssay AID504444 (National Center for Advancing Translational Sciences (NCATS), 2011):
# The campaign covered roughly 360,000 compounds. About 7,500 (2.1%) were called active. The shares of active, inactive and inconclusive entries below differ from those in the screen. The call rests on the fitted dose curve; in most records, active means well fitted inhibition curve with a large enough effect; inconclusive means small, poorly fitted or top-dose-only effect, or effect the other way; inactive means flat fitted curve, though single readings scatter. Potencies beside an inconclusive call are fits to weak or partial responses and may not hold up.
# Assay: Nrf2 qHTS screen for inhibitors; further: nearly all actives have a fitted effect of over 60% in size
# Settings: A549 ARE-Fluc reporter, luciferase luminescence, 18-24 h; activity change, negative = inhibition: at 46 µM (top of the series)
# Procedure, shortened: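 Concentration-response testing used A549 ARE_Fluc cells at 5000 cells/well. Following an 18-24 h compound incubation, viability was read by fluorescence (Ex 405/Em 525) and luciferase output by luminescence.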
# On the % scale 0 is the no-effect control and ±100 the full control effect; potency means the concentration at half of the fitted maximal effect.
Compound,"activity change, negative = inhibition",Potency
COc1ccc(CCNCc2cc3ccc(C)cc3[nH]c2=O)cc1OC,inactive: -4.63%,
N#CCc1ccc(NC(=O)c2cc(S(=O)(=O)N3CCOCC3)ccc2Cl)cc1,,"inconclusive: 18.4 µM [falling, single point]"
COC(=O)c1cc(Br)ccc1NC(=O)CSCc1c(C)noc1C,,"inconclusive: 25.9 µM [falling, partial curve, poor fit]"
Cc1ccc(SCC(=O)Nc2ccc3oc(-c4ccccc4C)nc3c2)cc1,inactive: 22.1%,
CN(C)CCCN(C(=O)c1cc2cc([N+](=O)[O-])ccc2s1)c1nc2cc3c(cc2s1)OCCO3,,"inconclusive: 29.1 µM [falling, single point]"
N#CC1=C2SCN(c3ccccc3)CN2C(=O)CC1c1c(Cl)cccc1Cl (centres undefined),,inactive
CC(C)n1cnc2c(Nc3ccc(F)c(Cl)c3)nc(NCCO)nc21,inactive: 18%,
COc1cc(OC)cc(C(=O)Nc2cc3c(cc2N2CCCC2)n(C)c(=O)c(=O)n3C)c1,,"inconclusive: 29.1 µM [activator, single point]"
N#Cc1c(Cl)nsc1NC(=O)c1ccccc1,,active: 2.59 µM
CN(C)CCNc1ccc(CO)c2sc3ccc(O)cc3c(=O)c12,,"inconclusive: 1.03 µM [falling, full curve]"
Cc1ccc(S(=O)(=O)N2CCOCC2)cc1NC(=O)CNCc1cccnc1,,"inconclusive: 6.51 µM [activator, single point]"
O=C(Nc1ccc(Oc2ccccc2)cc1)C1CCN(S(=O)(=O)c2ccc(Cl)cc2)CC1,,"inconclusive: 6.51 µM [falling, single point]"
CCOc1ccc(CCNC(=O)c2ccc3c(c2)c(C)c(C)n3Cc2ccccc2)cc1OCC,,"inconclusive: 6.51 µM [falling, single point]"
COc1ccc(-c2oc(NC(=O)c3ccc(C)cc3)c(C#N)c2-c2ccc(OC)cc2)cc1,,"inconclusive: 29.1 µM [falling, single point]"
CC1CN(C(=O)c2ccc(-c3cccc(C(F)(F)F)c3)o2)CC(C)O1 (centres undefined),,"inconclusive: 2.59 µM [activator, partial curve, poor fit]"
C/C(Cl)=C/Cc1c(C)[nH]c2c(ccc3ccccc32)c1=O,,"inconclusive: 20.6 µM [falling, partial curve]"
OC(c1ccc(OCc2ccccc2)cc1)c1nnc(-c2ccccc2)o1 (centres undefined),,active: 16.4 µM
Cc1ccc(C(=O)N/N=C\C=C\c2ccc(Br)cc2)cn1,,"inconclusive: 6.51 µM [activator, partial curve, poor fit]"
Cc1c(C(=O)Nc2ccc3c(c2)OCO3)sc2ncn(CC(=O)N3CC(C)CC(C)C3)c(=O)c12 (centres undefined),,"inconclusive: 2.59 µM [falling, full curve, poor fit]"

# Another view of part of the listing above:
Compound	activity change, negative = inhibition	Potency
N#CCc1ccc(NC(=O)c2cc(S(=O)(=O)N3CCOCC3)ccc2Cl)cc1		inconclusive: 18.4 µM [falling, single point]
N#Cc1c(Cl)nsc1NC(=O)c1ccccc1		active: 2.59 µM
CN(C)CCNc1ccc(CO)c2sc3ccc(O)cc3c(=O)c12		inconclusive: 1.03 µM [falling, full curve]
OC(c1ccc(OCc2ccccc2)cc1)c1nnc(-c2ccccc2)o1 (centres undefined)		active: 16.4 µM
